This data set concerns the target T1, ACO1 (aconitase 1, IRP1) (Homo sapiens (MDA-MB-231 exosome lysate)) (UniProt P21399).
T1 sequence (looked up, limits assumed): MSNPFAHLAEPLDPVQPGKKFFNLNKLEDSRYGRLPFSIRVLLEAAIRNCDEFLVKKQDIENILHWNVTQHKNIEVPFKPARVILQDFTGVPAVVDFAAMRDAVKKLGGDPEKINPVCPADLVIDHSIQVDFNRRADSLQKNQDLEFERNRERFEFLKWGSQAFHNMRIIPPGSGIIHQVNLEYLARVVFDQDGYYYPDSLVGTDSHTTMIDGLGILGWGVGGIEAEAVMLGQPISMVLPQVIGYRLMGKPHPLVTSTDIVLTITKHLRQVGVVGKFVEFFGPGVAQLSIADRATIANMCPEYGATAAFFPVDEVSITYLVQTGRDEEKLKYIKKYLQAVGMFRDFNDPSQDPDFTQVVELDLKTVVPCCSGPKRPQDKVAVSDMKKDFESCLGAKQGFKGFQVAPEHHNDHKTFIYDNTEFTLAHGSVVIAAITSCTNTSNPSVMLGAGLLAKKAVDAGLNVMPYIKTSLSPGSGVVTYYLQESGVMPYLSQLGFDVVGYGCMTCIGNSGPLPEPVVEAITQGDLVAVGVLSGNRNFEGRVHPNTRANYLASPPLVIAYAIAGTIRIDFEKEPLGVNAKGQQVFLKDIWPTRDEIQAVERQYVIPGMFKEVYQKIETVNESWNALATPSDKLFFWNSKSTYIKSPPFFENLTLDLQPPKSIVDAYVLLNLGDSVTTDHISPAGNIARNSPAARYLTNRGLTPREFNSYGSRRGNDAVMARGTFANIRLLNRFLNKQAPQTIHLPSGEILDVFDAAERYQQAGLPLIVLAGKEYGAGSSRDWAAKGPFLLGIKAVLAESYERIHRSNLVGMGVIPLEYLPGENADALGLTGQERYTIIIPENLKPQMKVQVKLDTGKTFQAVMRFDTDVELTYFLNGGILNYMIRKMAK
Briefly: pull-down. The following applies: Pulldown: 3 ug biotinylated miRNA, 1 mg lysate in RIPA buffer with RNase and protease inhibitors, 4 C 1 h, then streptavidin beads overnight at 4 C, protein in an extract.

The exact form of at least one protein or probe is not confirmed. Results from cells or extracts need not show a direct contact. Negatives hold for the conditions tested. Protein sequences can lack the tags named with them. Weaker means in comparison with the reference protein, sequence or condition of that experiment. At least one verdict rests on a figure or table, not on a statement of the authors.

As to “GUGCAUUGUAGUUGGUAACGA [Biotin-miR-33a-5p mut2 (CAUUGC mutated)]”, the binding result (label: 5' biotin) was “no binding”. For “GUCGUAACUAGUUGCAUUGCA [Biotin-miR-33a-5p mut1 (outside CAUUGC)]”, the binding result is on record as “binds more weakly” (ferric carboxymaltose (FeCM), label: biotin) and “binds” (no FeCM, label: biotin). As to “GUGCAUUGUAGUUGCAUUGCA [Biotin-hsa-miR-33a-5p]”, the binding result is, setting by setting: (ferric carboxymaltose (FeCM), label: 5' biotin) “binds more weakly”; (no FeCM, label: 5' biotin) “binds”.

These data come from publication PMC12408367 (2025).
